{"source": "PubChem BioAssay AID1508600", "about": "(Functional Genomics Laboratory (NCATS/FGL), 2020)", "note": "The campaign covered roughly 53,000 sequences. About 3,700 (7%) were called active.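 How the source made its calls: active means gene knockdowns whose robust z-score for IL-1 alpha signal is at least 2 or at most -2, so actives lie on both sides; inactive means the rest.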 The list shows a part of the results.", "data": [{"test": "Components of the Cytosolic LPS Sensing Pathway: Gene Identification via Genome-wide siRNA Screen;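 further: robust z of the log signal after scaling to non-targeting control siRNA wells of the plate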", "conditions": "RAW264.7 macrophages, IL-1a HTRF, actives lie on both sides, screened at 100 nM (by protocol), cells primed 5 h with Pam3CSK4 first", "outline": "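Using IL-1a HTRF as read-out, the screen measured release from RAW264.7 cells after 48h siRNA knockdown (100 nM), 5 h Pam3CSK4 priming and 24 h cytosolic LipidA. Values were expressed relative to negative-control wells as robust z-scores.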", "values": [{"sequence": "GGUGGCCAAGAAAACAUGUTT against Rims3", "z-score": "inactive: 0.12"}, {"sequence": "GCCACUUUACCAAACGACATT against Pglyrp2", "z-score": "inactive: 1.28"}, {"sequence": "GGAGGAAGUGUUCUUUUCCTT against Psg17", "z-score": "inactive: -0.169"}, {"sequence": "GCAACACAAGAUUGUAUUGTT against Rif1", "z-score": "inactive: -0.439"}, {"sequence": "AGUGAAACUAAACUGGAGUTT against 2610318N02Rik", "z-score": "inactive: 1.41"}, {"sequence": "GGAAGAGACGCAAUAAGUGTT against Borcs5", "z-score": "inactive: 0.74"}, {"sequence": "CGUGGUGACUAAGGAUUAUTT against Slc6a20b", "z-score": "inactive: -1.86"}, {"sequence": "GGUUUUCCGGACAGACUUGTT against Jade2", "z-score": "inactive: 1.25"}, {"sequence": "GCCCUACGGACAAACAGCATT against Zfp790", "z-score": "inactive: -1.68"}, {"sequence": "CCAGGAUCCUGUUUCUGACTT against AF067061", "z-score": "active: 2.19"}, {"sequence": "GGAUGGAGAGAACUACUUATT against Gltpd2", "z-score": "inactive: 0.999"}, {"sequence": "GGUGAUUCCAGACUCGGAUTT against Pdzd11", "z-score": "inactive: -1.26"}, {"sequence": "GGCAUAACCAAAAGAAAGUTT against 4933427E11Rik", "z-score": "inactive: 0.648"}, {"sequence": "GGAAACUUUUACUUCACAGTT against P3h1", "z-score": "inactive: -0.322"}, {"sequence": "GGUGGGAGUAGUGUUUGUGTT against Ly6f", "z-score": "inactive: 1.33"}, {"sequence": "CCUGAGAUUUCCUAACAUCTT against Prr11", "z-score": "inactive: -0.281"}, {"sequence": "GGCCACUCAACUCUGUACUTT against Atxn7l1", "z-score": "inactive: 1.86"}, {"sequence": "GGUCAACCAUUCCUCUUGATT against Ccdc9b", "z-score": "inactive: 0.409"}, {"sequence": "GGUUCUGUGAAUUCUUUAATT against U90926", "z-score": "inactive: -0.154"}, {"sequence": "GCUGUGGGAGGAUAGCAUGTT against Mfsd3", "z-score": "inactive: -1.01"}, {"sequence": "GGACAUUGCUUUUCACUAUTT against 4930447C04Rik", "z-score": "inactive: -0.191"}, {"sequence": "GGAAUGCAAUGACAAAUGATT against Kank3", "z-score": "inactive: 0.198"}, {"sequence": "GGCCAUUAUCAUCAAAGUATT against Dph6", "z-score": "inactive: -1.69"}, {"sequence": "GCCCUGUACCUUUUAGCUUTT against Olfr704", "z-score": "inactive: -0.306"}, {"sequence": "GGUGAUAGGAGAGAGAAAGTT against Miga2", "z-score": "inactive: 0.447"}, {"sequence": "CGGAUCACAUUGCAUAAAATT against Calcrl", "z-score": "inactive: -0.295"}, {"sequence": "GGAAACUACUACAAUCAAGTT against Pigl", "z-score": "inactive: 1.51"}, {"sequence": "GGCAUGUCCAAGGAAUACUTT against Snrpg", "z-score": "inactive: -1.4"}, {"sequence": "GGACUAGAAUAUCACAACGTT against Iqub", "z-score": "inactive: 0.905"}, {"sequence": "CGAAUUCAUACCAGUGUGCTT against Ndufa10", "z-score": "active: 2.84"}, {"sequence": "GGAUGUGACUCAGAUUGGGTT against Tmem171", "z-score": "inactive: 0.0209"}, {"sequence": "GGUGCUGCCAAGAUCUCUUTT against Ido2", "z-score": "inactive: -0.0285"}, {"sequence": "CGGCACUGACUUAUUGUUCTT against Olfr574", "z-score": "inactive: 0.886"}, {"sequence": "GGAGGGAGACCUUAUCUUATT against Tjp3", "z-score": "inactive: -0.65"}, {"sequence": "GGCGAAGAAAAUUGAAAGATT against Utp11", "z-score": "inactive: 1.03"}, {"sequence": "GGGACAAAUUAACGACAUATT against Angptl3", "z-score": "inactive: 0.0571"}, {"sequence": "GCCUUGAAGAGUCUCAUAUTT against Farp1", "z-score": "inactive: 0.0568"}, {"sequence": "GCCAGGAUCCAUCAAUUCCTT against Olfr376", "z-score": "inactive: -1.84"}, {"sequence": "GGCUGAUGUUAACAUUGAATT against Cdkn2c", "z-score": "inactive: 1.31"}, {"sequence": "GGACAUUGAGGAUUAUGUCTT against Med24", "z-score": "inactive: 0.332"}, {"sequence": "GGUAGUUCCUAAUAUUACCTT against Tlr4", "z-score": "inactive: 0.634"}, {"sequence": "GGGAUUCUGAUCGUGUCCATT against Olfr1509", "z-score": "inactive: -1.1"}, {"sequence": "CCCGCUGGUGUUCCUUUGUTT against Mis18a", "z-score": "inactive: 0.462"}, {"sequence": "GGAAAGUCUCUGUUGUUCUTT against Alas1", "z-score": "inactive: 1.51"}, {"sequence": "GCAGGCAACUCGAAUGAGATT against Tmem163", "z-score": "inactive: 0.433"}, {"sequence": "GAUGCAGCAGCCAUAAGAATT against Defa-rs12", "z-score": "inactive: 0.167"}, {"sequence": "CCAUGACAUUUCCUAAGUUTT against Sall3", "z-score": "inactive: -0.2"}, {"sequence": "CGUGAGAUCAUUGAUGUGGTT against Ankrd2", "z-score": "inactive: -1.16"}, {"sequence": "GGUGUUGUGAAGUGUCAAATT against Dipk1a", "z-score": "inactive: -0.0609"}, {"sequence": "GCCUUUCAUACAUUCAACATT against Olfr313", "z-score": "inactive: -1.49"}, {"sequence": "CCCGACUGAAUGCUCGGAUTT against Rnf220", "z-score": "inactive: 0.386"}, {"sequence": "CCAGUAGUUACAAUGUUCUTT against 9530077C05Rik", "z-score": "inactive: 0.49"}, {"sequence": "GGUCUUUGUCCUCAUUUUCTT against Olfr1205", "z-score": "inactive: 0.179"}, {"sequence": "CGUUUAUUGUAACCAGAAUTT against Fam168b", "z-score": "inactive: 0.263"}, {"sequence": "GGACAAAUCUUCGUGCAAATT against Tle4", "z-score": "inactive: 0.722"}, {"sequence": "GGGCUGAAUAAAAGCCAGATT against Zfp428", "z-score": "inactive: 0.889"}, {"sequence": "GCCGGAUCUAUUAAAGAAATT against Hdac2", "z-score": "inactive: 0.134"}, {"sequence": "GGAGUUGGAGAACAUUAUGTT against Dmrt2", "z-score": "inactive: 0.783"}, {"sequence": "GGAUGAAGAUCAGAUUCAATT against Metap1d", "z-score": "inactive: 0.317"}, {"sequence": "GGCAUCUGAGCUGAGGAUUTT against Gem", "z-score": "inactive: -0.295"}, {"sequence": "GCUUGCUGUUACGAUUCGCTT against Rab35", "z-score": "inactive: 1.73"}, {"sequence": "CGAUCUUCCGCUCUGACUCTT against Taar4", "z-score": "inactive: -0.845"}, {"sequence": "GGGAAGCUGGGAAAAAAGATT against Tbc1d19", "z-score": "inactive: 0.825"}, {"sequence": "UAACUCCAUGAUCAAUCCCTT against Gpr6", "z-score": "inactive: 0.0493"}, {"sequence": "CCAAAAAGAUGCUGUUAAGTT against Ankrd34b", "z-score": "inactive: 1.07"}, {"sequence": "GGGUUCCUCCUUUCACAGATT against Ppia", "z-score": "inactive: -1.3"}, {"sequence": "GGAAUACUUAUAGCUGACUTT against Sdr16c5", "z-score": "inactive: -1.34"}, {"sequence": "CCAGCAGCAAUUAGGACGUTT against Ogdh", "z-score": "inactive: -0.0569"}, {"sequence": "GUCAUGCCAGCAGAAAUGCTT against Sprr2j-ps", "z-score": "inactive: -0.418"}, {"sequence": "CCCUAGGAAAGGGUUUUAGTT against Tmem129", "z-score": "inactive: 1.39"}, {"sequence": "GCCAUUAAUCUCACAUGUATT against Crebrf", "z-score": "inactive: 1.39"}, {"sequence": "GGAAUUUUCAAGGAACAAUTT against Il1rapl2", "z-score": "inactive: -1.8"}, {"sequence": "GGACCUGAGAGACUCUUUGTT against Ip6k2", "z-score": "active: -3"}, {"sequence": "GCCUGUGGUAGGAUACUAUTT against Denr", "z-score": "inactive: -0.964"}, {"sequence": "GGAGUAGAUUUAAAAGGCATT against 4933440M02Rik", "z-score": "inactive: 0.145"}, {"sequence": "GGUAUCAGAGCUGUGUUCUTT against Cpped1", "z-score": "inactive: -1.48"}, {"sequence": "GGAGUACCCGGACUACAAGTT against Sox3", "z-score": "inactive: 0.982"}, {"sequence": "GGCCAUCAGUAACCCAUUGTT against Olfr1132", "z-score": "inactive: -1.65"}, {"sequence": "GGUCCUCCAGUAAGGACAATT against Hsd3b6", "z-score": "inactive: 1.56"}, {"sequence": "GGACCCAUGAGGUUAACUUTT against Tbc1d22a", "z-score": "inactive: 0.922"}, {"sequence": "GCCUUGAGAUGACGACAACTT against Thyn1", "z-score": "inactive: -0.29"}, {"sequence": "GGAAAUGUGCAAUUUAGUGTT against Abcb1a", "z-score": "inactive: 1"}, {"sequence": "GGAAGGAUCAUACCUAUUUTT against Acbd3", "z-score": "inactive: 0.551"}, {"sequence": "CCCUAUAAAGAGAAAUUGGTT against Zfp663", "z-score": "inactive: -0.166"}, {"sequence": "AGGUGAUGGGUUAUGGCAGTT against Olfr1331", "z-score": "inactive: 0.0143"}, {"sequence": "GGGACACACGGUAUACAUCTT against Pfkl", "z-score": "inactive: 0.627"}, {"sequence": "CCCUGCGCCCUCUAAUAAATT against Pla2g1b", "z-score": "inactive: -0.624"}, {"sequence": "GGUAGAAGUCGUCUCUAACTT against Csf2", "z-score": "inactive: -0.596"}, {"sequence": "GCCAGAAUGUGCUCAUUCGTT against Amhr2", "z-score": "inactive: -0.418"}, {"sequence": "GGAUGUAAAGAGGAAUCUCTT against Abca16", "z-score": "inactive: -0.748"}, {"sequence": "GCGAGAUUCUUGCUUACUCTT against Slc66a2", "z-score": "inactive: -0.472"}, {"sequence": "GGCAAAGUAUAAAGAAGUATT against Gkap1", "z-score": "active: 2.23"}, {"sequence": "GCUGGUUUCGGACAUAGCCTT against Actn3", "z-score": "inactive: 0.557"}, {"sequence": "GGAGGAGCUUAGCCCUUUUTT against Bad", "z-score": "active: 2.28"}, {"sequence": "CGGAUUAGAAGAGCCAAACTT against Cd59b", "z-score": "inactive: 0.352"}, {"sequence": "CGAGAUUGCCAAGGCUCAATT against Hint1", "z-score": "inactive: -0.855"}, {"sequence": "GGACGAUCAUGACAAGAUGTT against Psmb2", "z-score": "active: -2.35"}, {"sequence": "GGGAUUUUCAGGGAGAUUUTT against Plekho1", "z-score": "inactive: 1.46"}, {"sequence": "GGCAUCAGUGAGGUUUGUCTT against Olfr420", "z-score": "inactive: -0.963"}, {"sequence": "GCCUAACAAUAGUGGAAUUTT against Ms4a13", "z-score": "active: 2.76"}, {"sequence": "CCCGAAUGCUGCUGUAUACTT against Psd3", "z-score": "inactive: -0.379"}, {"sequence": "GGGCAUCAUGCCUCAUGAATT against Alkbh6", "z-score": "inactive: -0.901"}, {"sequence": "GGAAAAUCAGACCAUACUGTT against Arl3", "z-score": "inactive: -0.441"}, {"sequence": "GCAAUAACUGGAAUAAUGGTT against Slc40a1", "z-score": "inactive: 0.0985"}, {"sequence": "GGGACAUGAAAUAAAUGUCTT against Mag", "z-score": "inactive: -0.0573"}, {"sequence": "CCUGGACCAGAAUAAACACTT against Crtc1", "z-score": "inactive: -0.162"}]}]}
